Some of these results come from one statement about several compounds together.
Legend:
Botrytis cinerea [1] = test: Example 3: activity against the grey mold Botrytis cinerea in the microtiterplate test; assay type: cell-based; settings: 31 ppm active substance; relative to compound-free control (100%)
Ustilago maydis = test: Example 11: activity against Ustilago maydis in the microtiterplate test; assay type: cell-based; settings: 31 ppm active substance; DOB media (ph 7); relative to compound-free control (100%)
[2] = test system: Pyrenophora teres Qoi (FL129) resistant isolate; test: Example 12: activity against Pyrenophora teres Qoi (FL129) resistant isolate in the microtiterplate test; assay type: cell-based; settings: 31 ppm active substance; DOB media (ph 7); relative to compound-free control (100%)
Septoria tritici = test: Example 5: activity against the leaf blotch on wheat caused by Septoria tritici in the microtiterplate test; assay type: cell-based; settings: 31 ppm active substance; relative to compound-free control (100%)
Leptosphaeria nodorum = test: Example 8: activity against Leptosphaeria nodorum in the microtiterplate test; assay type: cell-based; settings: 31 ppm active substance; DOB media (ph 7); relative to compound-free control (100%)
Monilinia laxa = test: Example 10: activity against Monilinia laxa in the microtiterplate test; assay type: cell-based; settings: 31 ppm active substance; DOB media (ph 7); relative to compound-free control (100%)
Leptosphaeria maculans = test: Example 13: activity against Leptosphaeria maculans in the microtiterplate test; assay type: cell-based; settings: 31 ppm active substance; DOB media (ph 7); relative to compound-free control (100%)
Fusarium culmorum = test: Example 4: activity against Fusarium culmorum in the microtiterplate test; assay type: cell-based; settings: 31 ppm active substance; relative to compound-free control (100%)
Corynespora cassiicola = test: Example 14: activity against Corynespora cassiicola in the microtiterplate test; assay type: cell-based; settings: 31 ppm active substance; DOB media (ph 7); relative to compound-free control (100%)
[3] = test system: Corynespora cassiicola (CORYCA-G) G413A mutant; test: Example 15: activity against Corynespora cassiicola (CORYCA-G) G413A mutant in the microtiterplate test; assay type: cell-based; settings: 31 ppm active substance; DOB media (ph 7); relative to compound-free control (100%)
Microdochium nivale = test: Example 6: activity against Microdochium nivale in the microtiterplate test; assay type: cell-based; settings: 31 ppm active substance; DOB media (ph 7); relative to compound-free control (100%)
Fusarium gramminearis = test: Example 9: activity against Fusarium gramminearis in the microtiterplate test; assay type: cell-based; settings: 31 ppm active substance; DOB media (ph 7); relative to compound-free control (100%)
[4] = test system: Colletotrichum orbiculare; test: Example 7: activity against Colletotrichum orbiculare in the microtiterplate test; assay type: cell-based; settings: 31 ppm active substance; DOB media (ph 7); relative to compound-free control (100%)
Sclerotinia sclerotiorum = test: Example 17: preventative fungicidal control of white mold on oilseed rape caused by Sclerotinia sclerotiorum (green house); assay type: in vivo; settings: 100 g/ha, sprayed one day before inoculation; assessed after 14 days; untreated plants 100% infected
Botrytis cinerea [5] = test: Example 18: preventative fungicidal control of Botrytis cinerea on leaves of green pepper (green house); assay type: in vivo; settings: 250 ppm, sprayed one day before inoculation; assessed after 5 days; untreated plants 100% infected

| SMILES | growth of the pathogen (Botrytis cinerea [1]) | growth of the pathogen (Ustilago maydis) | growth of the pathogen [2] | growth of the pathogen (Septoria tritici) | growth of the pathogen (Leptosphaeria nodorum) | growth of the pathogen (Monilinia laxa) | growth of the pathogen (Leptosphaeria maculans) | growth of the pathogen (Fusarium culmorum) | growth of the pathogen (Corynespora cassiicola) | growth of the pathogen [3] | growth of the pathogen (Microdochium nivale) | growth of the pathogen (Fusarium gramminearis) | growth of the pathogen [4] | growth of the pathogen (visually assessed as % diseased leaf area) (Sclerotinia sclerotiorum) | growth of the pathogen (visually assessed as % diseased leaf area) (Botrytis cinerea [5]) |
| --- | --- | --- | --- | --- | --- | --- | --- | --- | --- | --- | --- | --- | --- | --- | --- |
| Cc1cc(C2=NC(C)(C)Oc3c(C)cccc32)cnc1C [Ex-21] | ≤ 11% | ≤ 19% | ≤ 16% | ≤ 20% | ≤ 19% | ≤ 16% | ≤ 10% | ≤ 19% | ≤ 19% | ≤ 19% | ≤ 18% | ≤ 17% | ≤ 17% | – | – |
| Cc1cc(C2=NC(C)(C3CCC3)Oc3c(Cl)cccc32)cnc1C (stereo not drawn) [Ex-42] | ≤ 11% | ≤ 19% | ≤ 16% | ≤ 20% | ≤ 19% | – | ≤ 10% | ≤ 19% | ≤ 19% | ≤ 19% | ≤ 18% | – | ≤ 17% | at most 10% | at most 15% |
| Cc1cc(C2=NC3(CCC3)Oc3c(F)cccc32)cnc1C(F)F [Ex-46] | ≤ 11% | – | ≤ 16% | ≤ 20% | ≤ 19% | ≤ 16% | ≤ 10% | – | ≤ 19% | ≤ 19% | ≤ 18% | – | ≤ 17% | at most 10% | at most 15% |
| CCOC1(C)N=C(c2cnc(C(F)F)c(C)c2)c2cccc(F)c2O1 (stereo not drawn) [Ex-47] | ≤ 11% | – | ≤ 16% | – | ≤ 19% | ≤ 16% | ≤ 10% | – | ≤ 19% | ≤ 19% | ≤ 18% | – | ≤ 17% | at most 10% | at most 15% |
| Cc1cc(C2=NC3(CCC3)Oc3c(Cl)cccc32)cnc1C(F)F [Ex-50] | ≤ 11% | – | ≤ 16% | ≤ 20% | ≤ 19% | ≤ 16% | ≤ 10% | – | ≤ 19% | ≤ 19% | ≤ 18% | – | ≤ 17% | at most 10% | at most 15% |
| Cc1cc(C2=NC(C)(OCC(C)C)Oc3ccccc32)cnc1C(F)F (stereo not drawn) [Ex-54] | ≤ 11% | – | ≤ 16% | – | ≤ 19% | ≤ 16% | ≤ 10% | – | ≤ 19% | ≤ 19% | ≤ 18% | – | ≤ 17% | at most 10% | – |
| Cc1cc(C2=NC(C)(C)Oc3c(F)cccc32)cnc1C(F)F [Ex-55] | ≤ 11% | – | ≤ 16% | – | ≤ 19% | ≤ 16% | ≤ 10% | – | ≤ 19% | ≤ 19% | ≤ 18% | – | ≤ 17% | at most 10% | – |

Reference: US20240294544A1, “NEW SUBSTITUTED PYRIDINES AS FUNGICIDES” (BASF SE, priority 2021, published 2024)
